Publication doi:10.1101/690172
Results are given in words; binding and its absence hold for the method and conditions named. In cells and extracts the contact can be indirect. A yes stands for co-enrichment or nearness to the bait. Other partners may have been found.

The chains behind the UniProt entries cited, without tags or fusion partners.
UniProt Q9JHU4: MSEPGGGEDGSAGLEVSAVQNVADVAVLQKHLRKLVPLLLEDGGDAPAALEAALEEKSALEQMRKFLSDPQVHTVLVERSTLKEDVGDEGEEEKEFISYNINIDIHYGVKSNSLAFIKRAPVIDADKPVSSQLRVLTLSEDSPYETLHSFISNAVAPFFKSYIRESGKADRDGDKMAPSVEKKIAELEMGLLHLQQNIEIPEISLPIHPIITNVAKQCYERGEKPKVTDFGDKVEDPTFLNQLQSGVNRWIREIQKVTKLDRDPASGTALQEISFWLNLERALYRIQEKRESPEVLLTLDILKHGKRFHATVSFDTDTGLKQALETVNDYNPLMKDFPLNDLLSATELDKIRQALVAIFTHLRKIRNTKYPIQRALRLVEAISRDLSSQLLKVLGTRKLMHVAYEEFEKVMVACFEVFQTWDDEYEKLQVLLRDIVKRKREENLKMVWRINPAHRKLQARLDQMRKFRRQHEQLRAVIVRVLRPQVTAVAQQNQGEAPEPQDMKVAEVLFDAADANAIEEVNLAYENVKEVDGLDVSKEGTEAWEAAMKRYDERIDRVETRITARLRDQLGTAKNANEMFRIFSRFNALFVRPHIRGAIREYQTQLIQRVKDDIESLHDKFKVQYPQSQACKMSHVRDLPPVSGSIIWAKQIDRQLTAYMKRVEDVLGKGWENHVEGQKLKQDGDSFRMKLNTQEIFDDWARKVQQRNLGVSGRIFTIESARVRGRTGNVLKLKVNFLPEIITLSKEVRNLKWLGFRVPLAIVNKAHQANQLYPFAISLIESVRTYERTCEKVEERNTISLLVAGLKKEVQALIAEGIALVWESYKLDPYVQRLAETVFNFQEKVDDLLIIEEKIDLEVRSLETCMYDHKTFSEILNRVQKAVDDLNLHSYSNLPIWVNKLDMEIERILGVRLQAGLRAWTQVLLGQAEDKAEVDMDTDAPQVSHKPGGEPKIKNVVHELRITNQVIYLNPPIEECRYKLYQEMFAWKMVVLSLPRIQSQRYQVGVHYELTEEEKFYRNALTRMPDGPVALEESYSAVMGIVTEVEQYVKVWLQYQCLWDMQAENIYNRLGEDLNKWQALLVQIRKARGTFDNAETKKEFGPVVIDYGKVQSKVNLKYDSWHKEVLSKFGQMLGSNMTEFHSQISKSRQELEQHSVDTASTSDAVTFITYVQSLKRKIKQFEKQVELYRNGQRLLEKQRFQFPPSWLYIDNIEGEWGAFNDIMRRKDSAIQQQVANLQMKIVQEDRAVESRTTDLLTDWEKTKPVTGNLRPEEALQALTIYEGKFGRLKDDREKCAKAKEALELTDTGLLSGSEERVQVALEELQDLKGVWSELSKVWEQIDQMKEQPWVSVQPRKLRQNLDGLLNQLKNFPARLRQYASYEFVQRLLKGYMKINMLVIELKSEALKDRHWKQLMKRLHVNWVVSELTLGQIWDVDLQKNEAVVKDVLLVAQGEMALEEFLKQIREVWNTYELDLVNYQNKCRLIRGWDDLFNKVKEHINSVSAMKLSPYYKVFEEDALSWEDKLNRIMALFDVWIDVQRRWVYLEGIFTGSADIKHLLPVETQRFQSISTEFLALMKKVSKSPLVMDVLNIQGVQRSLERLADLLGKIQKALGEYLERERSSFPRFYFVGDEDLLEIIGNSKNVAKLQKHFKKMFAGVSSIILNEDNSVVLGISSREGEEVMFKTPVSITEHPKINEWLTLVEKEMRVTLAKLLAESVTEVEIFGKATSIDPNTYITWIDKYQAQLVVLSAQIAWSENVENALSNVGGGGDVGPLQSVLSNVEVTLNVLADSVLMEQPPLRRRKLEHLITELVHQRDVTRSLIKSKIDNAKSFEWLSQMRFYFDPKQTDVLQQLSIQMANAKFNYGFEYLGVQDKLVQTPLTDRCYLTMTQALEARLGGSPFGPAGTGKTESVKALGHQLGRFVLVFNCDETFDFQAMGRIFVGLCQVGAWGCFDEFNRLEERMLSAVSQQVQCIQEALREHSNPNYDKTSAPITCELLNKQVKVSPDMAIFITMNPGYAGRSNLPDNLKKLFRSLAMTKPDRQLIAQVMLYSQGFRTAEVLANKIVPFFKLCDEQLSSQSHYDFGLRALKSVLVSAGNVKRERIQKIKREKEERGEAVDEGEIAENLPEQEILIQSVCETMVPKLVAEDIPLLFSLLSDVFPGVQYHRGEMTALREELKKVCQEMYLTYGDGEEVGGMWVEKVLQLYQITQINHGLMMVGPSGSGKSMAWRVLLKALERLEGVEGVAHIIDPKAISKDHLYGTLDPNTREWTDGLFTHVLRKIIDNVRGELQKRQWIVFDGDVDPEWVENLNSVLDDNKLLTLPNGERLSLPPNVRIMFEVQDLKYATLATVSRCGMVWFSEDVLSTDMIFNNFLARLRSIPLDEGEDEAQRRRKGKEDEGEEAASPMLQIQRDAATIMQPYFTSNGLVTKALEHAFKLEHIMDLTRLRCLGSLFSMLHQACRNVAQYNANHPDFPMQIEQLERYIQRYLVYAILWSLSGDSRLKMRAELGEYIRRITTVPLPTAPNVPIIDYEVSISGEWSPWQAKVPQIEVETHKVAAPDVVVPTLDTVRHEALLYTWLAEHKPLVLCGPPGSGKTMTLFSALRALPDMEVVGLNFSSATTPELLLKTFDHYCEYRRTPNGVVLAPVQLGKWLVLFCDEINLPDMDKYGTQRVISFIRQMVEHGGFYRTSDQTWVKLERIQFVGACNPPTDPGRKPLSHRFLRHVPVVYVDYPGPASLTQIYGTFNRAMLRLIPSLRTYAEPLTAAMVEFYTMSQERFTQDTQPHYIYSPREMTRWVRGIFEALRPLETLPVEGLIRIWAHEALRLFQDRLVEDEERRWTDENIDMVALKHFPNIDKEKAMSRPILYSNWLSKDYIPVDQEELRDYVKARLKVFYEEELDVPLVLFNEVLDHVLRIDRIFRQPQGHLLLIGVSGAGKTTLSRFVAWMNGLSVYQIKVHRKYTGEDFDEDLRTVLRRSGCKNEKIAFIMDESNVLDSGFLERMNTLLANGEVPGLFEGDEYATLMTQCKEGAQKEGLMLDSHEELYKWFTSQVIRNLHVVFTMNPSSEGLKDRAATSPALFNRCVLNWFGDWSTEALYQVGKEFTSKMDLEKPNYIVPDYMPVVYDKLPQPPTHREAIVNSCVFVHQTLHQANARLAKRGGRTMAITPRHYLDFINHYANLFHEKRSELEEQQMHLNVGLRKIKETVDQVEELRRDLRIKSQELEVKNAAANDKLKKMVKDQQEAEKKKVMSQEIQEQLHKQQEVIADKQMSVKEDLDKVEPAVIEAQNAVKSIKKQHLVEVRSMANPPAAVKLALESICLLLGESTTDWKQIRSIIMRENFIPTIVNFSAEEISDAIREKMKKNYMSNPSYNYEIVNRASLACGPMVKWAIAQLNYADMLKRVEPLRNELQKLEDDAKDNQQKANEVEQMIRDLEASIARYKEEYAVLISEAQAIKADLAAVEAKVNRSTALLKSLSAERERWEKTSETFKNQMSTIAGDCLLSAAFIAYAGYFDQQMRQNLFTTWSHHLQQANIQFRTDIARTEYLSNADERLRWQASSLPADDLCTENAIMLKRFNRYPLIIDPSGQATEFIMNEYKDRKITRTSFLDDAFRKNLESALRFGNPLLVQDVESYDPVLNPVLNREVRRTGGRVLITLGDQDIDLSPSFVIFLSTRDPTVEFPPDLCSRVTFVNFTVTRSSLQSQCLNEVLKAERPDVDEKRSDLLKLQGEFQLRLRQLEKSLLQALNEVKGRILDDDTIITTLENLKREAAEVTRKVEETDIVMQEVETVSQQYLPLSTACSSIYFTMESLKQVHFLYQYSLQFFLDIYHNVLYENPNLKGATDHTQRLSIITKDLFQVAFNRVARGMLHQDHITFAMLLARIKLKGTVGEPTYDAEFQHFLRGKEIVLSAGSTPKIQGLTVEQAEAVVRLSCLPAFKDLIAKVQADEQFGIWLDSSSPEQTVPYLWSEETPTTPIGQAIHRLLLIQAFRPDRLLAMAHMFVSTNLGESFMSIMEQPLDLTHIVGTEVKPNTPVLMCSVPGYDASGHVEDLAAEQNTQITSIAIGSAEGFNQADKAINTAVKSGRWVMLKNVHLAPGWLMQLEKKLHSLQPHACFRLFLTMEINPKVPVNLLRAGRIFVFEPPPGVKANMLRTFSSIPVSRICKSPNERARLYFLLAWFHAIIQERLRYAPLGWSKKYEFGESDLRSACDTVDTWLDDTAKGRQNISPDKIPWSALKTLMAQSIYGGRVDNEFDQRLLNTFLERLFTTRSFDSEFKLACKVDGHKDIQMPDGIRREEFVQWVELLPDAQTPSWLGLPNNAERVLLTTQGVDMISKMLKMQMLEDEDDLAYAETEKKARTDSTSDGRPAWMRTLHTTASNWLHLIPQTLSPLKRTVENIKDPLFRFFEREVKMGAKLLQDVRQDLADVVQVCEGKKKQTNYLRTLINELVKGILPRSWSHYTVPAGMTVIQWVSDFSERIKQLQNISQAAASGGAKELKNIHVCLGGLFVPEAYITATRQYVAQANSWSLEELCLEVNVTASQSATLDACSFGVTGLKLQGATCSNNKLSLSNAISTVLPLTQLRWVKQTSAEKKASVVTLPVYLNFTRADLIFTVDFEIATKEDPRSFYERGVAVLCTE

Biological target: T1, Cyclin-dependent-like kinase 5 (Cdkl5), mouse, endogenous (mouse (endogenous in murine cortex and DRG)) (UniProt Q3UTQ8)
T1 sequence: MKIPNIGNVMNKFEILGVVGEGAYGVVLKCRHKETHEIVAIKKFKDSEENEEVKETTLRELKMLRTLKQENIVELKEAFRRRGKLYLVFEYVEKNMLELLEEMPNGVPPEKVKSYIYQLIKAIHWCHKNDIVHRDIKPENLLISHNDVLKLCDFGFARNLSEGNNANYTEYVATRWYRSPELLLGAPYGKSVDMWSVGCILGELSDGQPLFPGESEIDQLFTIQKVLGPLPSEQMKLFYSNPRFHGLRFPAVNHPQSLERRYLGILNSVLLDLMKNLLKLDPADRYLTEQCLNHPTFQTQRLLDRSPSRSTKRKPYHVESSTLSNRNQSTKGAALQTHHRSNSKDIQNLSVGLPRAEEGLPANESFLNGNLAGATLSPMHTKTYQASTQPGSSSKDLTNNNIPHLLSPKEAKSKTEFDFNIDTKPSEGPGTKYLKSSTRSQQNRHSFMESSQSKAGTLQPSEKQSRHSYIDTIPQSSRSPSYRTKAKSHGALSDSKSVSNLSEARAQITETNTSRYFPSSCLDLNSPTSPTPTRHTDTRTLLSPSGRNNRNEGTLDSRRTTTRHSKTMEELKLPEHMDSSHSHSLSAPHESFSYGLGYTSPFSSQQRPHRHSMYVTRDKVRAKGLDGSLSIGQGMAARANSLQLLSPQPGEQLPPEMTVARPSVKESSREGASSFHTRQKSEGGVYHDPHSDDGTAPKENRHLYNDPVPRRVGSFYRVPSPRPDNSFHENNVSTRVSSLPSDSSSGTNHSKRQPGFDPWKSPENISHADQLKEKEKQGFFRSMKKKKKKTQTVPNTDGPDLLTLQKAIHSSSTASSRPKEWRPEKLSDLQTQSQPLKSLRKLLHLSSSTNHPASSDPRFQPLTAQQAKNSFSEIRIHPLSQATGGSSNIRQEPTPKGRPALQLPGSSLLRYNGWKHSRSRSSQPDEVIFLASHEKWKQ
Experiment: affinity purification with mass spectrometry

Row | binding | Substance
1 | binds | Dynch1h1, mouse, endogenous (from UniProt Q9JHU4 1-4644)
2 | binds | Myh10, mouse, endogenous (from UniProt Q61879 1-1976)
